From the supplement of paper PMC11732987, “Enantioselective OTUD7B fragment discovery through chemoproteomics screening and high-throughput optimisation” (Communications Chemistry, 2025)
This is one part of the list. The data scatter; read single values as rough.

The chains behind the UniProt entries cited, without tags or fusion partners. Where a name states a change or a piece, a line headed by the entry shows the natural chain unless it says otherwise.
UniProt Q9NZI8: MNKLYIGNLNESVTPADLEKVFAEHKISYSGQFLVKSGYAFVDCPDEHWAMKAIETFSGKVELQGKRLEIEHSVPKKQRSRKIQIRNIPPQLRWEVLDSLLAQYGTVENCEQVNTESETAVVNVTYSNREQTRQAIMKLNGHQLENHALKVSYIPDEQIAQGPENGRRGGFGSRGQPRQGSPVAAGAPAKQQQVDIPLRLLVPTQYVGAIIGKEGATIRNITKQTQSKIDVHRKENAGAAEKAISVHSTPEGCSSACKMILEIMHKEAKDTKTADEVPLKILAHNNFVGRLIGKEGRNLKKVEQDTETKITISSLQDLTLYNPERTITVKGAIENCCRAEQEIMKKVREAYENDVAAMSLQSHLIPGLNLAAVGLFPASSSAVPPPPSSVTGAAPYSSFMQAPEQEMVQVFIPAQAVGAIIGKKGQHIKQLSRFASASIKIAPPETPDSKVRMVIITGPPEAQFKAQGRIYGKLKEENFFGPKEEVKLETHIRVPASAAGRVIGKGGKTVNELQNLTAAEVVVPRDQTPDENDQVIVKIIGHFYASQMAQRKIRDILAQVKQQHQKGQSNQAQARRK
UniProt Q9P2D0: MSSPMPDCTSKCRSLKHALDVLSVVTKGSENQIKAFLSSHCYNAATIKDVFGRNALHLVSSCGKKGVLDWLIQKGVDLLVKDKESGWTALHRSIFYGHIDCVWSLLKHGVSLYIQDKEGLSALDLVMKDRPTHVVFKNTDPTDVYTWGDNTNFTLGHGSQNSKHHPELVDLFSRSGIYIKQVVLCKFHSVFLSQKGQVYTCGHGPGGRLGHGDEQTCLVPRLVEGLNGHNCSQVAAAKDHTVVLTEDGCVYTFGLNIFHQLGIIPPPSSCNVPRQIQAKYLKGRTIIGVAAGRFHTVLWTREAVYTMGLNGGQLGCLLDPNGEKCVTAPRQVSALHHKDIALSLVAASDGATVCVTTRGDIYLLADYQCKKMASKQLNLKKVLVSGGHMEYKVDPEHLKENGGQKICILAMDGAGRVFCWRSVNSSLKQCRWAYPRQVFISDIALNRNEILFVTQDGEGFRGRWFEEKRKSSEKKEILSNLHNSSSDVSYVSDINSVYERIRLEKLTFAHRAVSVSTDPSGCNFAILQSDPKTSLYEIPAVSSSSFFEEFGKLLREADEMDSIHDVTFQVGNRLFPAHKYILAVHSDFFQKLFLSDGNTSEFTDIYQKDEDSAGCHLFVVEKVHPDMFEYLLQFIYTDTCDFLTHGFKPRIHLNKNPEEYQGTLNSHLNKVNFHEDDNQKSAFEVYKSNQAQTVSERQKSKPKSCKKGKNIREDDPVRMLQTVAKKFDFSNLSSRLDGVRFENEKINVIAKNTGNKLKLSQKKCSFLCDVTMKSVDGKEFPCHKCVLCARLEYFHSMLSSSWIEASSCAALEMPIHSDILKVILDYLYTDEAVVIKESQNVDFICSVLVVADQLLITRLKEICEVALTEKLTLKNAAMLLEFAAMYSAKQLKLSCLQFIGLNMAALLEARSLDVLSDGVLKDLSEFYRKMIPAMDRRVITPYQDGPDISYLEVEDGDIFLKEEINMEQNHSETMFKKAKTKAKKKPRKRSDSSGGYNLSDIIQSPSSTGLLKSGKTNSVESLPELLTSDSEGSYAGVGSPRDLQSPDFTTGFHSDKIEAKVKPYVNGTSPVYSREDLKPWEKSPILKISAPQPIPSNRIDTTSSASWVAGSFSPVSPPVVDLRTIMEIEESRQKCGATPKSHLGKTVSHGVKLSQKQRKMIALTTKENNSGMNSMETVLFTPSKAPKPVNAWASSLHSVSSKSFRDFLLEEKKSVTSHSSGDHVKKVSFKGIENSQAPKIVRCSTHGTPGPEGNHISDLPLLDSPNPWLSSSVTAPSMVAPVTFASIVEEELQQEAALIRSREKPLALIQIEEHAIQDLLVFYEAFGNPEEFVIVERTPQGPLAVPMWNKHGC
UniProt Q9UL03: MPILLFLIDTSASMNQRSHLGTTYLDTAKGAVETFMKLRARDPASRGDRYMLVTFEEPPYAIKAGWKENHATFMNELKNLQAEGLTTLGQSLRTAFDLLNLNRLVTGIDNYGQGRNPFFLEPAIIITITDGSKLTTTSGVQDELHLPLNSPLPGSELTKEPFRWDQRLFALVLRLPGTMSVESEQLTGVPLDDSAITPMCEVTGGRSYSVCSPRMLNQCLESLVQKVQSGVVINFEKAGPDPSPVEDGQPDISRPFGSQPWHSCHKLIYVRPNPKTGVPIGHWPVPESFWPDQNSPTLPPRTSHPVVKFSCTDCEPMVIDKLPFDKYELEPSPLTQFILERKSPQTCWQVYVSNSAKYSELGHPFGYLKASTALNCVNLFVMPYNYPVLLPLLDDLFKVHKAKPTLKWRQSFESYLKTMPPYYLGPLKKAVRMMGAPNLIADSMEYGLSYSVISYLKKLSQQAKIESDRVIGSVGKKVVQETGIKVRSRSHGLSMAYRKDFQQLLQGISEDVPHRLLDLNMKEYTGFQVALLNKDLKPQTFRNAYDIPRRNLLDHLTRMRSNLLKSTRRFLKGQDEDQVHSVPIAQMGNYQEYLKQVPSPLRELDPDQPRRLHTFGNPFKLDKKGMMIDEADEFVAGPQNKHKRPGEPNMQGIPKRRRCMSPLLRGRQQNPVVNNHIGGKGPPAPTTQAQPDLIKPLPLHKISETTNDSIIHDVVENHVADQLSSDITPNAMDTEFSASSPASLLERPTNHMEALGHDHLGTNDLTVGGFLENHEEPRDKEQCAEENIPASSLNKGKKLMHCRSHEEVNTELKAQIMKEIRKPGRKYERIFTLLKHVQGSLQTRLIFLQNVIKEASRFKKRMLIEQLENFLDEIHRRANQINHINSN
UniProt Q92902: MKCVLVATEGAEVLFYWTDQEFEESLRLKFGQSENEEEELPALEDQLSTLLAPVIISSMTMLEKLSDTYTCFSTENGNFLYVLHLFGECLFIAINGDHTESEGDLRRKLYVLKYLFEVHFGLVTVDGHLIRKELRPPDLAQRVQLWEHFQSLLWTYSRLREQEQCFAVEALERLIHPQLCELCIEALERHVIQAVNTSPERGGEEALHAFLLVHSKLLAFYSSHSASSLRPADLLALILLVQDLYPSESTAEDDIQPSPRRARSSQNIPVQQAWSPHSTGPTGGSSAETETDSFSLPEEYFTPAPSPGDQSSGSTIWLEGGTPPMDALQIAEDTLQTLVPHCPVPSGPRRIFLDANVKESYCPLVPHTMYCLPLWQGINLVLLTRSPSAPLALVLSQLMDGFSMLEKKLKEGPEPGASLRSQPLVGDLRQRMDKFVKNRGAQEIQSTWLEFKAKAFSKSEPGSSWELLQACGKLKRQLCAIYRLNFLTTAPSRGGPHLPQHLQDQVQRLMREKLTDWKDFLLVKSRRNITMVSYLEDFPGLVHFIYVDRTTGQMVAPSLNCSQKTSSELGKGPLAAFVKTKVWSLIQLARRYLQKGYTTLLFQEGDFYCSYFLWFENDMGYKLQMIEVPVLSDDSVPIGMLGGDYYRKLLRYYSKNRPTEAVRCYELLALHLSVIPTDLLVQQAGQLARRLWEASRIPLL
UniProt P50213: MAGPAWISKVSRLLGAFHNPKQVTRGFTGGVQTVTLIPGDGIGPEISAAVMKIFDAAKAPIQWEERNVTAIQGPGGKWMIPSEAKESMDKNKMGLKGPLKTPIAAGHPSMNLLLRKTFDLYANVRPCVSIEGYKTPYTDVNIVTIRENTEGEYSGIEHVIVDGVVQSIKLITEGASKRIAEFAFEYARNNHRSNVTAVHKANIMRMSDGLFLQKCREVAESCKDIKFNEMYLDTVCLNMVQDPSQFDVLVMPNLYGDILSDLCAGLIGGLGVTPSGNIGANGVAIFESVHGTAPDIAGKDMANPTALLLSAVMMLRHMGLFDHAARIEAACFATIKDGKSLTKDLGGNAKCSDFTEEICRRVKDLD
UniProt Q9BT40: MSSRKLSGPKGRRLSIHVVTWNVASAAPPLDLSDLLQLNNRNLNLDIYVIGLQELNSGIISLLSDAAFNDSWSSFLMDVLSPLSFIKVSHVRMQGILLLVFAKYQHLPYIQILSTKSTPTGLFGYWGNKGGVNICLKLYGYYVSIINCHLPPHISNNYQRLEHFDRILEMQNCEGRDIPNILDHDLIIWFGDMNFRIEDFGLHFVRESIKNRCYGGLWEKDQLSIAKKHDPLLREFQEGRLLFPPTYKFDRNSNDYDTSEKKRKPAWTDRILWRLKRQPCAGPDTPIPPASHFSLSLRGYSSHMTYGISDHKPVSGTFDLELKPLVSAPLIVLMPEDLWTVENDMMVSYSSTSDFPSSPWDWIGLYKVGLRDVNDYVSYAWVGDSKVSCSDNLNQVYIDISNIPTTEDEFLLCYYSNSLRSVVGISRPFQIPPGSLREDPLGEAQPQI
UniProt O75874, whole entry, looked up: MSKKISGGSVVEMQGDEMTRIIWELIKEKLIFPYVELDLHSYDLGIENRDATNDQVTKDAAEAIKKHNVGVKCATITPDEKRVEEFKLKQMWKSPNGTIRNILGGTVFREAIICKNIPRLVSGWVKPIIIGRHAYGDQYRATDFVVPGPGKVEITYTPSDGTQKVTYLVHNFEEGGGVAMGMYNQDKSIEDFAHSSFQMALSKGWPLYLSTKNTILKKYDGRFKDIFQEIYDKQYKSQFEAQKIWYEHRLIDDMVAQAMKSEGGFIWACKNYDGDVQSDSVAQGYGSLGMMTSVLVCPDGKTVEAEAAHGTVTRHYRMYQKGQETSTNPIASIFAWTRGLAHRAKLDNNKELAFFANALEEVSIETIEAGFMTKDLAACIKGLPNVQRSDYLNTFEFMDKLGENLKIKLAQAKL
UniProt Q13418: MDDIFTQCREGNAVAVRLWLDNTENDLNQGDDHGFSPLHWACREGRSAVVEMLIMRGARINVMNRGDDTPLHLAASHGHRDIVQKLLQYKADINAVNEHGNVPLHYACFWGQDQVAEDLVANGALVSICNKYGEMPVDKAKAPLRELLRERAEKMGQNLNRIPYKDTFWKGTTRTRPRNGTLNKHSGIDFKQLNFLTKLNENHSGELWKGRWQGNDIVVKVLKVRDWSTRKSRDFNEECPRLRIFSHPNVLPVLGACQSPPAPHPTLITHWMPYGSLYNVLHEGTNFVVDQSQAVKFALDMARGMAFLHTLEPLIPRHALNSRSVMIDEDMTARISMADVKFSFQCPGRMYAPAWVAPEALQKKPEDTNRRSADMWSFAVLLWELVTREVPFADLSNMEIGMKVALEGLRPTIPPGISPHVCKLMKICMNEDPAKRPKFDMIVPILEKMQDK
UniProt P48200: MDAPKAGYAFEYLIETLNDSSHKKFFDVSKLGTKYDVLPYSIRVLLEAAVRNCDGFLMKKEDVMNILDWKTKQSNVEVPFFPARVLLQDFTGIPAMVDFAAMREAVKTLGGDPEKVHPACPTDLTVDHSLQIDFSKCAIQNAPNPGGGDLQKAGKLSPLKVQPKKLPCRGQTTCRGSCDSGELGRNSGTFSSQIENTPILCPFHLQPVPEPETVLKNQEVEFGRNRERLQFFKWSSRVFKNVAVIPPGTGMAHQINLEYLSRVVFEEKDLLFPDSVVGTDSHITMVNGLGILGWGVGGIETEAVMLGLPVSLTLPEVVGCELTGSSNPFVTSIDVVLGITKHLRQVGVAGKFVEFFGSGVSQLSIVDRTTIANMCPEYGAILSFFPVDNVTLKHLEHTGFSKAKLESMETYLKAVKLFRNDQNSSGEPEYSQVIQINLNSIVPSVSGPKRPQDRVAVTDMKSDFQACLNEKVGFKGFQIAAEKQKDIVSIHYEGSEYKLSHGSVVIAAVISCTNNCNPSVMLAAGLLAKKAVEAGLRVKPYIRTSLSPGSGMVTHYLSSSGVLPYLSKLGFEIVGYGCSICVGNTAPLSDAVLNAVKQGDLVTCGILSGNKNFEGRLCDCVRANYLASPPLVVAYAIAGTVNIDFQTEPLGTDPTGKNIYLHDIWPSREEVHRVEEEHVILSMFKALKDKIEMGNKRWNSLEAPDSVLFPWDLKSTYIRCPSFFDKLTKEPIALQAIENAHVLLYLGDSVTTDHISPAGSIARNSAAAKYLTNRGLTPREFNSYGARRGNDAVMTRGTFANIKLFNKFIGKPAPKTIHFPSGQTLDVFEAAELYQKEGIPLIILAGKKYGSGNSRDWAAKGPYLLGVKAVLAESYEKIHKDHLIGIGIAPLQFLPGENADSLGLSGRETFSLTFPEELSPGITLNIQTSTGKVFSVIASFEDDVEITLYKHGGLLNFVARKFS

Tests used:
[1] = compound: ClCC(=O)N[C@@H]1CCCc2ccccc12; experiment: log2 mean competition ratio of IA-DTB cysteine labelling (DMSO/compound) (log2 ratio); higher = stronger cysteine engagement by compound; settings: treatment time: 4 h, cell line lysate: HEK293T
Experimental: (§1)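 IA-DTB competitive cysteine chemoproteomics in HEK293T RIPA lysate. Lysates were treated with compound 29 or 30 at 50 or 200 µM for 4 h, then IA-DTB (500 µM, 1 h), trypsin-digested, NeutrAvidin-enriched and analysed by diaPASEF. Competition ratio = intensity DMSO / intensity compound (n=4 treated, n=64 DMSO); binding: mean log2 CR ≥ 1 and p ≤ 0.05 plus QC filters. Target is the cysteine site.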

[2] = compound: ClCC(=O)N[C@H]1CCCc2ccccc12; experiment: as above; settings: treatment time: 4 h, cell line lysate: HEK293T
Experimental: as §1

Target	log2 mean competition ratio ([1]; 50 µM)	log2 mean competition ratio ([1]; 200 µM)	log2 mean competition ratio ([2]; 50 µM)	log2 mean competition ratio ([2]; 200 µM)
IQGAP3 C1411 (UniProt Q86VI3)	-0.192	0.138	-0.0884	0.194
HSPBP1 C310	0.432	0.39	0.0812	0.408
IGF2BP1 C44 (UniProt Q9NZI8)	0.0628	-0.204	-0.00625	-0.0702
IBTK C231 (UniProt Q9P2D0)	0.0553	-0.0629	0.0524	-0.104
IGF2R C1042 (UniProt P11717)	0.0629	0.123	-0.467	0.107
INTS6 C783 (UniProt Q9UL03)	-0.0933	-0.219	-0.323	-0.176
HPS1 C561 (UniProt Q92902)	0.129	-0.38	0.398	-0.221
IDH3A C222 (UniProt P50213)	-0.265	0.11	-0.0793	0.228
INPP5K C173 (UniProt Q9BT40)	-0.0334	-0.0969	0.11	-0.0586
IDH1 C269 (UniProt O75874)	0.633	0.251	0.551	0.339
HPCAL1 C185 (UniProt P37235)	-0.252	-0.112	0.411	0.238
HROB C236	-0.0796	0.412	0.678	0.208
ILK C346 (UniProt Q13418)	0.0739	0.214	-0.143	0.208
HUWE1 C3658	-0.44	-0.094	0.136	-0.164
INTS7 C42 (UniProt Q9NVH2)	0.0701	0.049	-0.0857	0.0869
IREB2 C467 (UniProt P48200)	0.251	-0.233	-0.34	-0.108
HSPA4 C417 (UniProt P34932)	-0.239	-0.139	0.0225	0.0278

Limited to log2 mean competition ratio ([2]; 200 µM), log2 mean competition ratio ([2]; 50 µM) and log2 mean competition ratio ([1]; 200 µM), for some of the entries so far:
Target	log2 mean competition ratio ([2]; 200 µM)	log2 mean competition ratio ([2]; 50 µM)	log2 mean competition ratio ([1]; 200 µM)
HSPBP1 C310	0.408	0.0812	0.39
IREB2 C467 (UniProt P48200)	-0.108	-0.34	-0.233
